The text below walks through data of PMC5643558.

Protein sequences, listed by entry. Tags and fused reporters are not part of them.
UniProt P31749: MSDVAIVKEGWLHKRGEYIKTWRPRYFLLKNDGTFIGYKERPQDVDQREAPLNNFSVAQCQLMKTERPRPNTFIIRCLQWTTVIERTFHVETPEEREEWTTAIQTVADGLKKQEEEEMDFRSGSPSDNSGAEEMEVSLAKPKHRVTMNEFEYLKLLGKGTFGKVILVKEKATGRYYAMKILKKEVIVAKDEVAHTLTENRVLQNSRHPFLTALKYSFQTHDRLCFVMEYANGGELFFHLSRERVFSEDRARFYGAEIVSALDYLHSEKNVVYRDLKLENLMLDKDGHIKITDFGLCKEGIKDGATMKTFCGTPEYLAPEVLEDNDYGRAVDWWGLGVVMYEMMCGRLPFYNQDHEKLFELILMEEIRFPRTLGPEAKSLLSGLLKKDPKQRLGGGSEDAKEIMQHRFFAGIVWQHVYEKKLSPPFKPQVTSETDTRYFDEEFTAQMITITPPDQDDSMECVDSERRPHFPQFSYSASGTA
UniProt P31751: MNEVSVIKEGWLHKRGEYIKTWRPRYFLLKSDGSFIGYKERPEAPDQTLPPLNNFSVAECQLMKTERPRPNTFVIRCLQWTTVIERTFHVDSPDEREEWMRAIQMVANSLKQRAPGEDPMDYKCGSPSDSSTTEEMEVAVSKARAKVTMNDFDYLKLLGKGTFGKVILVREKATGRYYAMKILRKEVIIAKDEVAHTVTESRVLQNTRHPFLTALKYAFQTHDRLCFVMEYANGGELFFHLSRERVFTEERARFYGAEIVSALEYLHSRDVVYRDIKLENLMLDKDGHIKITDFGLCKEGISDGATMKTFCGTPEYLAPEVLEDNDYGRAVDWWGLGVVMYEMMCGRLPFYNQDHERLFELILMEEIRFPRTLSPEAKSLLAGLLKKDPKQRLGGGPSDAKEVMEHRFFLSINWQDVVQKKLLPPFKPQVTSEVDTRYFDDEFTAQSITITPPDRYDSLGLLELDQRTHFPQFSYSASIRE
UniProt Q9Y243: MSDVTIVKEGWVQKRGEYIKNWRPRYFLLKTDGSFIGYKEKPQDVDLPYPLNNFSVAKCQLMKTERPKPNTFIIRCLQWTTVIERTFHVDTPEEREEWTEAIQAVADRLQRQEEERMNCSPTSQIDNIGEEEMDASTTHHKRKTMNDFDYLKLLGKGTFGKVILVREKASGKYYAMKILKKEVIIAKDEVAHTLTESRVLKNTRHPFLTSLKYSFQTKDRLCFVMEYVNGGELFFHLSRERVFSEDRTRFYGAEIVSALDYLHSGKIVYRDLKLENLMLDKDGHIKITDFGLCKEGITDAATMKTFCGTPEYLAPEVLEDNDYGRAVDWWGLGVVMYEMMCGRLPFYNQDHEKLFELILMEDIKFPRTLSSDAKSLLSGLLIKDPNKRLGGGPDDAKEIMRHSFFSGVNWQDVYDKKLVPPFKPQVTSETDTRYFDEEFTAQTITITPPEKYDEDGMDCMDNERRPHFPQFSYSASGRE
UniProt P19474: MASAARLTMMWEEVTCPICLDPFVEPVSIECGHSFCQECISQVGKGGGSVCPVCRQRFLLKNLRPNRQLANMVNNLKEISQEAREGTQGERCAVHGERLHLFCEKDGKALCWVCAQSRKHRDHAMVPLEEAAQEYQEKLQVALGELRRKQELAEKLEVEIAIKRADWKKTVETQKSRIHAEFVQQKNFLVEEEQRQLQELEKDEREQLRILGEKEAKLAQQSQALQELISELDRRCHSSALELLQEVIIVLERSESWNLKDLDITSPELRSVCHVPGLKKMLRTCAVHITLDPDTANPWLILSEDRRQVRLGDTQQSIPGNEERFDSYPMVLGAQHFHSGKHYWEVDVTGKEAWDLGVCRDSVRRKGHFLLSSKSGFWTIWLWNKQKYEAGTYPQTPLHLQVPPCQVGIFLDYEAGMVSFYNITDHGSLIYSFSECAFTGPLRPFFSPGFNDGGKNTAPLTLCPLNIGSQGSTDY

Results are given in words; binding and its absence hold for the method and conditions named. Binding seen in cells or lysates may run through a third protein. These calls come from enrichment with a bait or labelling near it, and not all partners need be listed.

This experiment deals with T1, endogenous PFKP (phosphofructokinase 1 platelet isoform) (human (endogenous in U251, U87/EGFR, U87/EGFRvIII and 293T)) (UniProt Q01813).
T1 sequence: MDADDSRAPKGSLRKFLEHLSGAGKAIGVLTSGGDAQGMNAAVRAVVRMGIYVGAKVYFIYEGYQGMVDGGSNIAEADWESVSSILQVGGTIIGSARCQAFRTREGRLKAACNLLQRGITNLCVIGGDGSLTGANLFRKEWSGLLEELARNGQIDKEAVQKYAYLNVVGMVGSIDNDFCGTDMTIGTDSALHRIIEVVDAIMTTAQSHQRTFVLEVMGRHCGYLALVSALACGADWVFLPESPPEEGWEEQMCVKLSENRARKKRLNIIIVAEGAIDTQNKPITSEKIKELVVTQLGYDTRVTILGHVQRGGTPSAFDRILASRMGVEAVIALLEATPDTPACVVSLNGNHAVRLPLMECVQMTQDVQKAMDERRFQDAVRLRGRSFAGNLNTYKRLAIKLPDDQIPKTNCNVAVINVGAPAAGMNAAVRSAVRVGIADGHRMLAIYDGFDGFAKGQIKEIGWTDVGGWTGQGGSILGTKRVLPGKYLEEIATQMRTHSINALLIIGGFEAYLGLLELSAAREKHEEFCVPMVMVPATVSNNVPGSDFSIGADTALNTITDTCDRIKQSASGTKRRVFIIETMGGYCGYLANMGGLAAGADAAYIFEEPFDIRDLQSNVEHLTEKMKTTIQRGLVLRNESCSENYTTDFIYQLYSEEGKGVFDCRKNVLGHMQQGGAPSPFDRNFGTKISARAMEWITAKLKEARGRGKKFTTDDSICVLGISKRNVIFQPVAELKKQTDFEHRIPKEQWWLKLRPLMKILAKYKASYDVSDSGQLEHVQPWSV
Briefly: affinity purification with mass spectrometry; PFKP immunoprecipitated from U251 cells, LC-MS/MS of the immunoprecipitates.
Consider “AKT1 (found in PFKP immunoprecipitates) (from UniProt P31749 1-480)”, for which the binding entry is listed as “binds”.

Take “AKT2 (found in PFKP immunoprecipitates) (from UniProt P31751 1-481)”: the binding result is on record as “binds”.

Regarding “AKT3 (found in PFKP immunoprecipitates) (from UniProt Q9Y243 1-479)”, the binding entry is reported as “binds”.

Turning to “TRIM21 (tripartite motif-containing protein 21) in U251 and U87/EGFRvIII cells (from UniProt P19474 1-475)”, the binding entry is “binds”.
